Measurements: PubChem BioAssay AID493014 (National Center for Advancing Translational Sciences (NCATS), 2011)
Some of the results follow. Shown are side measurements of this screen, not its main read-out; they come without a call. Most of these compounds were active or inconclusive in the main read-out, so they are no random draw. Words in brackets tell the shape of the fitted curve; partial curves, single points and poor fits give uncertain potencies.

Experiment: qHTS Assay to Find Inhibitors of Chronic Active B-Cell Receptor Signaling
Conditions: ABC-DLBCL IkBa-CBG/CBR reporter, luminescence ratio (green luciferase fused to IkBa over red control in TMD8 lymphoma cells), 4 h
Method in brief: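 TMD8 human ABC-DLBCL cells with doxycycline-inducible IκBα–green luciferase fusion and unfused red luciferase, in 0.5% FBS medium; compounds up to 46 uM, 4 h at 37C. Green/red luminescence ratio, filter-overlap corrected, fitted to concentration-response curves.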

[1] = measured here: CBR red luminescence, cell number
[2] = measured here: IkBa-CBG green luminescence

Structure (SMILES): O=C(Nc1cccc(F)c1)N1CCN(C(=O)c2ccco2)CC1
- AC50 [1]: 8.91 µM [rising, single point]

Structure (SMILES): CCOc1ccc(CCNc2nc3c(c(=O)n(C)c(=O)n3C)n2CC)cc1OCC
- AC50 [1]: 29.1 µM [falling, single point]

Structure (SMILES): Oc1ccc(/C=N/Nc2nccnc2Cl)c(O)c1
- AC50 [1]: 3.66 µM [falling, full curve]

Structure (SMILES): COC(=O)c1cc(C(=O)OC)cc(N2C(=O)CC(NNC(=O)c3ccccc3Br)C2=O)c1 (stereo not given)
- AC50 [1]: 8.91 µM [falling, partial curve]

Structure (SMILES): COc1ccc(NCc2cc3ccccc3[nH]c2=O)cc1
- AC50 [1]: 35.5 µM [falling, single point]

Structure (SMILES): CCCN(Cc1nnc(-c2ccccc2Cl)o1)C(=O)c1oc2ccccc2c1C
- AC50 [1]: 29.1 µM [falling, single point]

Structure (SMILES): Cc1csc(NC(=O)Cc2coc3cc(C)c(C(C)C)cc23)n1
- AC50 [1]: 29.1 µM [falling, single point]

Structure (SMILES): Cc1cc(O)cc2c1C(=O)/C(=C/c1ccco1)O2
- AC50 [1]: 35.5 µM [falling, single point]

Structure (SMILES): CC(C)N(Cc1cc2ccccc2[nH]c1=O)C(=O)c1ccco1
- AC50 [1]: 12.6 µM [falling, partial curve]

Structure (SMILES): CCCOC(=O)c1ccc(NC(=O)C2CCCO2)cc1 (stereo not given)
- AC50 [1]: 1.64 µM [rising, partial curve]

Structure (SMILES): CCOC(=O)c1ccccc1N1C(=O)CSC1=S
- AC50 [2]: 29.1 µM [falling, single point]

Structure (SMILES): Cn1c(=O)c2c(ncn2Cc2cccc(Cl)c2)n(C)c1=O
- AC50 [1]: 2.51 µM [falling, partial curve, poor fit]

Structure (SMILES): O=C(Nc1ccc(N2CCOCC2)c(C(=O)O)c1)c1ccco1
- AC50 [1]: 29.1 µM [falling, partial curve, poor fit]

Structure (SMILES): Cc1ccc2c(CSc3nncs3)cc(=O)oc2c1
- AC50 [1]: 35.5 µM [rising, single point]

Structure (SMILES): CCCn1c(SCC(=O)Nc2c(C)cccc2CC)nnc1C(C)C
- AC50 [1]: 7.31 µM [falling, single point]

Structure (SMILES): CC(=O)n1cc([C@H]2C=C(C(=O)Nc3ccccc3)O[C@@H](OCc3ccc(CO)cc3)C2)c2ccccc21
- AC50 [1]: 11.2 µM [falling, single point]

Structure (SMILES): O=C1NCC(O)=C1C=NC12CC3CC(CC(C3)C1)C2
- AC50 [1]: 3.66 µM [rising, partial curve, poor fit]

Structure (SMILES): Cc1nc(N2CCOCC2)c(C#N)c2c1COC(C)(C)C2
- AC50 [1]: 2.06 µM [rising, partial curve, poor fit]

Structure (SMILES): Cc1cc(C)c(C#N)c(N2CCN(c3ccc(F)cc3)CC2)n1
- AC50 [1]: 0.891 µM [rising, full curve, poor fit]

Structure (SMILES): Cc1ccc2nc(-c3cccnc3)oc2c1
- AC50 [1]: 6.31 µM [rising, single point]

Structure (SMILES): COc1ccc(C[C@H](N)C(=O)N[C@H]2[C@@H](O)[C@H](n3cnc4c(N(C)C)ncnc43)O[C@@H]2CO)cc1
- AC50 [1]: 25.9 µM [falling, single point]

Structure (SMILES): O=C(NC(=S)Nc1ccccc1N1CCCC1)c1cccc(F)c1
- AC50 [1]: 20 µM [falling, single point]

Structure (SMILES): O=C(c1ncn[nH]1)N1CCN(c2nc(-c3ccccc3)cs2)CC1
- AC50 [1]: 0.501 µM [rising, full curve, poor fit]

Structure (SMILES): O=C(O)COc1ccc(/C=C/C(=O)c2ccc3ccccc3c2)cc1
- AC50 [1]: 20 µM [falling, single point]

Structure (SMILES): COC(=O)c1sccc1NC(=O)CSc1ccccc1NS(=O)(=O)c1cc(Cl)ccc1Cl
- AC50 [1]: 23.1 µM [falling, partial curve]

Structure (SMILES): Cc1c(N=Cc2nc3ccccc3n2C)c(=O)n(-c2ccccc2)n1C
- AC50 [1]: 0.501 µM [rising, full curve]

Structure (SMILES): CCOc1ccccc1C(=O)Nc1ccc2nc3n(c(=O)c2c1)CCCCC3
- AC50 [1]: 2.24 µM [falling, full curve, poor fit]

Structure (SMILES): O=C(NCc1ccco1)c1cc(-c2ccccc2)nn1CC1CC(c2cccc([N+](=O)[O-])c2)=NO1 (stereo not given)
- AC50 [1]: 9.2 µM [rising, partial curve]

Structure (SMILES): Cc1sc(NC(=O)Cn2cnnn2)nc1-c1ccc(Cl)cc1
- AC50 [1]: 22.4 µM [falling, single point]

Structure (SMILES): COc1ccccc1-c1c(C)nn2c(C)cc(C)nc12
- AC50 [1]: 8.2 µM [rising, partial curve]

Structure (SMILES): CC(C)OC(=O)c1cccc(C(=O)OCc2ccco2)n1
- AC50 [1]: 10 µM [falling, partial curve, poor fit]

Structure (SMILES): O=C(NCc1ccncc1)C1CCCCC1
- AC50 [1]: 6.51 µM [falling, single point]

Structure (SMILES): CN(C)CCNC(=O)C(c1ccccc1)c1ccccc1
- AC50 [1]: 35.5 µM [rising, single point]

Structure (SMILES): CCCn1c2ccccc2c2cc(C(=O)O)ccc21
- AC50 [1]: 10 µM [falling, partial curve]
- AC50 [2]: 5.62 µM [rising, partial curve]

Structure (SMILES): Cc1ccccc1NC(=O)CC(C)S(=O)(=O)c1ccc2c(c1)NC(=O)CO2 (stereo not given)
- AC50 [1]: 15.8 µM [falling, partial curve, poor fit]

Structure (SMILES): COc1ccc(Cc2nnc(N/N=C/c3ccc(O)cc3O)[nH]c2=O)cc1OC
- AC50 [1]: 29.1 µM [falling, single point]

Structure (SMILES): O=C(CC1(O)C(=O)Nc2ccccc21)c1cccnc1 (stereo not given)
- AC50 [1]: 0.116 µM [falling, full curve, poor fit]

Structure (SMILES): O=C(/C=C/c1ccc(OC(F)F)cc1)Nc1cccc(S(=O)(=O)NC2=NCCCCC2)c1
- AC50 [1]: 7.94 µM [falling, partial curve, poor fit]

Structure (SMILES): NC(=NC(=O)c1cccc(C(F)(F)F)c1)c1ccc(C(F)(F)F)cn1
- AC50 [1]: 10 µM [rising, partial curve]

Structure (SMILES): COc1ccc(SCCN2CC[C@@H](C(C)(C)C)CCC2=O)cc1
- AC50 [1]: 32.6 µM [falling, single point]

Structure (SMILES): CCCCN1CC(O)=C(c2nc(-c3ccc(Br)cc3)cs2)C1=N
- AC50 [1]: 1.41 µM [rising, full curve]

Structure (SMILES): Cc1cc2[nH]ncc2cc1NC(N)=S
- AC50 [1]: 11.2 µM [falling, partial curve, poor fit]

Structure (SMILES): Cc1nn(Cc2ccc(F)cc2)c(C)c1NC(=O)c1cnn2c1NC(c1cccs1)CC2C(F)(F)F (stereo not given)
- AC50 [1]: 14.6 µM [falling, single point]

Structure (SMILES): O=C(COC(=O)c1ccc(F)c(S(=O)(=O)N2CCOCC2)c1)NCc1ccc(F)cc1
- AC50 [1]: 3.26 µM [rising, full curve]

Structure (SMILES): COc1ccc(NC(=O)CSC2=C(C#N)C(c3ccco3)C3=C(CCCC3=O)N2)c(OC)c1 (stereo not given)
- AC50 [1]: 6.51 µM [falling, partial curve, poor fit]

Structure (SMILES): CC(C)c1nc2sc3c(SCC(N)=O)ncnc3c2c2c1CCC2
- AC50 [1]: 31.6 µM [rising, single point]

Structure (SMILES): CCOC(=O)c1ccc(NC(=S)N2CCN(CCN=CC3=C(O)CC(c4ccccc4)CC3=O)CC2)cc1 (stereo not given)
- AC50 [1]: 15.8 µM [falling, single point]

Structure (SMILES): CN=C1SC(CC(=O)Nc2ccccc2F)C(=O)N1/N=C/c1ccc(O)c(OC)c1 (stereo not given)
- AC50 [1]: 3.55 µM [falling, single point]

Structure (SMILES): COc1cc(NC(=O)[C@@H](NC(=O)N2CCn3c2nc2ccccc23)C(C)C)cc(OC)c1
- AC50 [1]: 15.8 µM [falling, single point]

Structure (SMILES): CC(=O)/C(=N\Nc1ccc(Cl)cc1Cl)Sc1cccc2cccnc12
- AC50 [1]: 25.9 µM [falling, single point]
- AC50 [2]: 6.51 µM [falling, single point]

Structure (SMILES): Cc1[nH]n(-c2ccccc2)c(=O)c1C=NCc1ccco1
- AC50 [1]: 3.98 µM [rising, single point]

Structure (SMILES): CCCc1cc(=O)oc2cc(OCC(=O)NCCCN3CCOCC3)c(Cl)cc12
- AC50 [1]: 7.94 µM [rising, partial curve, poor fit]

Structure (SMILES): O=C(NCCc1ccccc1)C1CCCN(S(=O)(=O)c2cccc3nsnc23)C1 (stereo not given)
- AC50 [1]: 25.9 µM [rising, single point]

Structure (SMILES): C#CCOCCOCCOCCNc1nc(N2CCN(C(=O)[C@H]([C@@H](C)O)n3cc(CCCCN)nn3)CC2)nc(N2CCN(C(=O)[C@H](CCCCN)n3cc(CC(C)O)nn3)CC2)n1 (stereo not given in full)
- AC50 [1]: 0.517 µM [rising, partial curve, poor fit]

Structure (SMILES): CC(/C=N/n1c(COc2ccccc2)n[nH]c1=S)=C\c1ccccc1
- AC50 [1]: 35.5 µM [rising, single point]

Structure (SMILES): CCCS(=O)(=O)N1CCC(C(=O)NCCc2ccccc2)CC1
- AC50 [1]: 20.6 µM [rising, partial curve, poor fit]

Structure (SMILES): COc1ccc(C(=O)Nc2cc([N+](=O)[O-])ccc2N2CCCC2)cc1
- AC50 [1]: 11.2 µM [rising, partial curve, poor fit]

Structure (SMILES): Cc1cc2cc(C)c3nnc(SCC(=O)N4CCc5ccccc54)n3c2cc1C
- AC50 [1]: 5.62 µM [rising, single point]

Structure (SMILES): COc1ccc(CNC(=O)C[C@H]2C[C@H](C(=O)N(C(C)C)C(C)C)[C@@]3(C)c4[nH]c5ccc(Cl)cc5c4CCN3C2=O)cc1OC
- AC50 [1]: 29.1 µM [falling, single point]

Structure (SMILES): CCOc1ccc(/C=C2\SC(=S)N(CCC(=O)O)C2=O)cc1
- AC50 [1]: 0.0891 µM [falling, full curve, poor fit]
- AC50 [2]: 8.91 µM [rising, partial curve, poor fit]

Structure (SMILES): Cc1cc(NS(=O)(=O)c2ccc(NC(=O)CCCOc3ccc(Cl)cc3)cc2)no1
- AC50 [1]: 28.2 µM [falling, single point]

Structure (SMILES): Cc1ccc(-n2c(C)cc(/C([O-])=C(/C(=S)Nc3ccc(F)c(Cl)c3)[n+]3ccccc3)c2C)cc1
- AC50 [1]: 6.51 µM [falling, partial curve]
